The chains behind the UniProt entries cited, without tags or fusion partners. Where a name states a change or a piece, a line headed by the entry shows the natural chain unless it says otherwise.
UniProt P33895: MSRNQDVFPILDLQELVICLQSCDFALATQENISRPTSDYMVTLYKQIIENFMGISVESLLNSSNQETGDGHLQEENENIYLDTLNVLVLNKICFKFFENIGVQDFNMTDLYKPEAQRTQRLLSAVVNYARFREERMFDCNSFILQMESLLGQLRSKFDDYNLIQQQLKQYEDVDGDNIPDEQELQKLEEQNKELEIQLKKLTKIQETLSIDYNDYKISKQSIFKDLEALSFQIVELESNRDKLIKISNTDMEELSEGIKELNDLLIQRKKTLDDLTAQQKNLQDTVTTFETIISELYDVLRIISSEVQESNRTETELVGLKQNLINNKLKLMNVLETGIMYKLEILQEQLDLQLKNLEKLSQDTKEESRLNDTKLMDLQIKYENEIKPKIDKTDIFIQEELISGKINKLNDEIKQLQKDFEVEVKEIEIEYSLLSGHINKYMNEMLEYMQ

According to paper PMC11953741:

Target: T1, Dad1-3Flag (Dam1 complex component Dad1) (S. cerevisiae) (UniProt Q12248)
T1 sequence: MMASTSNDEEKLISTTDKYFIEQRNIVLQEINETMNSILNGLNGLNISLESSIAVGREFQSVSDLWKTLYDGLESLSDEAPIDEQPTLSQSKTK
Experiment: co-IP; Flag immunoprecipitation of Dad1-3Flag from benzonase-treated yeast extracts (anti-Flag M3DK on Protein G Dynabeads, 3 h at 4 °C, Buffer H/0.15 with 150 mM KCl, pH 8.0), eluted with 3x M3DK peptide, silver-stained SDS-PAGE

binding: binds
Substance: Nuf2 Q21A-3V5 (S. cerevisiae nuf2^Q21A mutant) (from UniProt P33895)

Results are given in words; binding and its absence hold for the method and conditions named. Binding seen in cells or lysates may run through a third protein. Binding calls can cover weak binding; strength is not graded here. Tags and fused reporters may be left off the sequences shown.
